# Earlier results as cited in patent US12708649B2, “Compositions and methods for improving skin health and for the treatment and prevention of diseases, disorders and conditions associated with fungi and other pathogenic microbes” (priority 2020, dated 2026).
# At least one compound was matched to its structure with a doubt left.
# Test system: E. coli ATCC 25922
# Settings: MIC; cited from earlier work
row,SMILES,E. coli ATCC 25922 CLSI QC Range
1,C[C@H]1COc2c(N3CCN(C)CC3)c(F)cc3c(=O)c(C(=O)O)cn1c23 [Levofloxacin],0.008 to 0.06 µg/mL
2,CN(C)[C@@H]1C(O)=C(C(N)=O)C(=O)[C@@]2(O)C(O)=C3C(=O)c4c(O)cccc4[C@@](C)(O)[C@H]3C[C@@H]12 [Tetracycline],0.5-2^ μg/mL
3,CN(C)c1ccc(O)c2c1C[C@H]1C[C@H]3[C@H](N(C)C)C(O)=C(C(N)=O)C(=O)[C@@]3(O)C(O)=C1C2=O [Minocycline],0.25 to 1 µg/mL
